Experiment [1] deals with SARS-CoV-2. Nature of the experiment: microbe, parasite or virus in culture. The format is cell-based. The following applies: Severe acute respiratory syndrome coronavirus 2, Huh-7 cells.
The subject of experiment [2] is SigmaR2. The following applies: literature value (Moebius et al. 1997); cited from earlier work.

`CCCCc1oc2ccccc2c1C(=O)c1cc(I)c(OCCN(CC)CC)c(I)c1` [Amiodarone]: the response in experiment [1] (MOI 0.2, 10-point two-fold dilution dose response in triplicate) was half-maximal at 52 nM (EC50). In addition, the IC50 in experiment [1] (read-out: IC50 against SARS-CoV-2 infection) was 52 nM; in experiment [2] it was 1 nM.

Values taken from patent US20240016901A1, “COMPOSITIONS AND METHODS FOR PREVENTING AND TREATING SARS-COV-2 INFECTION” (priority 2020, published 2024).
